This note sets out measurements from paper PMC5034239.

Sequences of proteins named here, by UniProt entry; tags and fusion partners are left off. A change or cut given only in a name is not applied to a line headed by its entry. Residues count along the entry.
UniProt Q13136: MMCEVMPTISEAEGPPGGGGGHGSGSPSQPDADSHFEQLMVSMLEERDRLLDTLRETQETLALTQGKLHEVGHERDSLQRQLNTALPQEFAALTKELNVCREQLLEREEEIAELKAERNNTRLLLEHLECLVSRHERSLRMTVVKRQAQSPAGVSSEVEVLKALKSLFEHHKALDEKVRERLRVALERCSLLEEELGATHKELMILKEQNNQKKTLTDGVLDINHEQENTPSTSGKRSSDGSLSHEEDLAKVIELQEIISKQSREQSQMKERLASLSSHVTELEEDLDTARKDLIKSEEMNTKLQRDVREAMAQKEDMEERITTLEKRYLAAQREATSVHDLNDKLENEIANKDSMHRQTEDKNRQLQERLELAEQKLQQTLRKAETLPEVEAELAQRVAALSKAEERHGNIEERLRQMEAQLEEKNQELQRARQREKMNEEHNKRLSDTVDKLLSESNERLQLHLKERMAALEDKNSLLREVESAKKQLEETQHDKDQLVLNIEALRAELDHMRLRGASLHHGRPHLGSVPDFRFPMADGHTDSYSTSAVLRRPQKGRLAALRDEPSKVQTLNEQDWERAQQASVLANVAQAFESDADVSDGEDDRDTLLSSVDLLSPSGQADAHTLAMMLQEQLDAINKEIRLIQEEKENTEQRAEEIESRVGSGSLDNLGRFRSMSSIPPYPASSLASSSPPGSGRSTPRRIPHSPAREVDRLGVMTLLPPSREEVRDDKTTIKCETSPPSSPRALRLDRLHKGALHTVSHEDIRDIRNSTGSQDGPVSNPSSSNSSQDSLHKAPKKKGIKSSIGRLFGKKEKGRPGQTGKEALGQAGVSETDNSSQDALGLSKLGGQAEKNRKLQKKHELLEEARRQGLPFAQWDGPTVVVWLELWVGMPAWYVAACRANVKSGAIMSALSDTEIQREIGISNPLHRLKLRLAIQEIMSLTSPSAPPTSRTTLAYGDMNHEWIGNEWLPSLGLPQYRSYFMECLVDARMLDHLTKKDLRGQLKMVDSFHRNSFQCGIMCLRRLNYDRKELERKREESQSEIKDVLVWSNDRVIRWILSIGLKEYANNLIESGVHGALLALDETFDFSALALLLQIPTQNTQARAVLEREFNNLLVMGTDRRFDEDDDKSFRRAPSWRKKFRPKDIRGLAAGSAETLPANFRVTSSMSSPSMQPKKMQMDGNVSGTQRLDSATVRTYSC
GFP-Liprin-N: residues 1-344 of Q13136

Results are given in words; binding and its absence hold for the method and conditions named. Binding seen in cells or lysates may run through a third protein. Some entries that bind do so weakly or less than the wild type.

The test deals with GFP-Liprin-N (human) (UniProt Q13136). In words: co-IP; COS7 cells cotransfected with GFP-tagged and/or FLAG-tagged constructs; 300 μg of protein lysate per immunoprecipitation; antibody (anti-GFP in Fig. 1b,c) pre-adsorbed to protein A Sepharose, 3 h at 4 °C; blots with anti-FLAG and anti-GFP.
Turning to “FLAG-Liprin-1-670 (from UniProt Q13136 1-670) (domain or fragment)”, the binding result is on record as “binds”. For “FLAG-Liprin-ΔN (from UniProt Q13136 335-1202) (domain or fragment)”, the binding result is recorded as “no binding”. For “Liprin-1-517 (from UniProt Q13136 1-517) (domain or fragment)”, the binding entry is reported as “binds”. Under “full length FLAG-Liprin-α1 (from UniProt Q13136 1-1202)” stands “binds”.
